Results published in the supplement of paper PMC4683952.
This is one part of the list. No stated cut-off is given here; in the data, active = 2 or more and inactive = the rest. This data set is noisy: repeats of one test often differ as much as different tests do.

test system: Lgr5 (MarsCy1-Lgr5-EGFP, U2OS); assay: cell-surface Lgr5 expression (SCi1 fluorescence, background-subtracted) relative to WT DMSO (fold of DMSO control); higher = more Lgr5 at the plasma membrane; settings: U2OS MarsCy1-Lgr5-EGFP stable; treatment time: overnight; library: ActiProbe-5K (TimTec); 25 µM

Row | SMILES | cell-surface Lgr5 expression
1 | CN1COc2ccc3ccccc3c2C1 | inactive: 1.13
2 | O=S(=O)(Nc1cccc2ccccc12)N1CCCCC1 | inactive: 0.756
3 | COC(=O)CCC1(CCC(=O)OC)C(=O)CC(C)(C)CC1=O | inactive: 1.01
4 | CSc1ccc(/C=N/n2c(S)nnc2-c2cccnc2)cc1 | inactive: 0.981
5 | CC1CCN(c2nc(N3CCC(C)CC3)nc(N3CCC(C)CC3)n2)CC1 | inactive: 1.24
6 | Cc1nnc(SCc2csc(N)n2)n1C | inactive: 1.08
7 | CC1CN(S(=O)(=O)c2ccc(F)cc2)CC(C)O1 (stereo unspecified) | inactive: 1.01
8 | O=C(O)Cc1ccsc1 | inactive: 1.13
9 | CC(=O)c1nnn(-c2nonc2-n2cccc2)c1C | inactive: 1.35
10 | CSc1ccc(/C=C(/C#N)C(N)=S)cc1 | inactive: 1.34
11 | CCn1ncc(Cl)c1CNC(=S)NCCOC | inactive: 1.15
12 | Nc1n/c(=N\Nc2ccccc2)ss1 | inactive: 1.17
13 | Nn1c(=S)[nH]nc(CCC(=O)O)c1=O | inactive: 1.05
14 | Oc1cc2c(cc1O)CCN=C2 | inactive: 1.14
15 | CC(C)(C)c1cc(C(F)(F)F)c(C#N)c(=S)[nH]1 | inactive: 1.26
16 | OC(OCC1Cc2ccccc2O1)C1Cc2ccccc2O1 (stereo unspecified) | inactive: 0.982
17 | O=C1CC(c2ccsc2)c2sccc2N1 (stereo unspecified) | inactive: 0.854
18 | OC1=NN=C(CSc2nnnn2-c2ccc(Cl)cc2)Oc2ccccc21 | inactive: 0.937
19 | N#C/C(=C1\CCCCN1)c1nnc2n1CCCC2 | inactive: 0.792
20 | Br.COc1ccc(-c2cs/c(=N\Cc3ccccc3)[nH]2)cc1 | inactive: 0.939
21 | Clc1cc2cccnc2c2ncccc12 | inactive: 0.413
22 | O=[N+]([O-])c1cccc(N2Cc3ccccc3C2)c1 | active: 2.57

4 records drawn at random from those above:
Row | SMILES | cell-surface Lgr5 expression
6 | Cc1nnc(SCc2csc(N)n2)n1C | inactive: 1.08
14 | Oc1cc2c(cc1O)CCN=C2 | inactive: 1.14
15 | CC(C)(C)c1cc(C(F)(F)F)c(C#N)c(=S)[nH]1 | inactive: 1.26
5 | CC1CCN(c2nc(N3CCC(C)CC3)nc(N3CCC(C)CC3)n2)CC1 | inactive: 1.24

(further entries)

Row | SMILES | cell-surface Lgr5 expression
23 | CCC(C)C(=O)Nc1nnc(C(C)C)s1 (stereo unspecified) | inactive: 1.2
24 | Brc1ccc(C2N(c3ccccc3)CCN2c2ccccc2)s1 | inactive: 0.902
25 | Clc1ccc2c(c1)SS(Cl)=N2 (stereo unspecified) | inactive: 1.19
26 | CCn1c(=O)n(C2CCCCC2)c(=O)c2c3c(sc21)CCCC3 | inactive: 1.02
27 | Cc1ccc(C2=NNC(C(O)C(O)C(O)C(C)O)S2)cc1 (stereo unspecified) | inactive: 1.09
28 | COc1ccc2nc(-n3cccc3)sc2c1 | inactive: 1.02
29 | S=C(NC1CCCCC1)NN1CCOCC1 | inactive: 1.18
30 | OCCNCC12CC3CC(CC(C3)C1)C2 | inactive: 1.42
31 | CC1=CC(C)(C)N(S(=O)(=O)c2ccc(C)cc2)c2ccc(C)cc21 | inactive: 1.58
32 | CCCCCCCCCCCc1nnc(N)s1 | inactive: 0.857
33 | O=C(O)[C@H]1CCCC[C@H]1C(=O)N[C@H]1CCCC[C@@H]1NC(=O)[C@H]1CCCC[C@H]1C(=O)O | inactive: 0.973
34 | Fc1ccc(-c2cn3cc(Cl)ccc3n2)cc1 | inactive: 0.968
35 | N#Cc1c(NC(=O)CSc2sc3c(O)nc(=O)[nH]c3c2C#N)sc2c1CCCC2 | inactive: 1.3
36 | COc1ccc(-c2nc(C(F)(F)F)c(OC)o2)cc1OC | inactive: 1.28
37 | CC(O)CNC12CC3CC(CC(C3)C1)C2 (stereo unspecified) | inactive: 1.5
38 | N#C/C(=C/c1cc(Br)cs1)C(N)=S | inactive: 1.37
39 | Nc1ccc2ccc(O)nc2n1 | inactive: 1.3
40 | Clc1ccc2c(c1)CN(Cc1ccc3c(c1)OCO3)CO2 | inactive: 1.37
41 | C/C(=N\NC(N)=S)c1cccs1 | inactive: 1.09
42 | CCN(CC)Cc1c(C(=O)NN)nnn1-c1nonc1N | inactive: 1.24
43 | N#CCN(CC#N)S(=O)(=O)c1ccc(F)cc1 | inactive: 0.958
44 | COC(=O)Cc1ccc(C(=O)CCCCCCCCCl)s1 | inactive: 1.07

Ordered by length of the SMILES (descending): part of the list above
Row | SMILES | cell-surface Lgr5 expression
31 | CC1=CC(C)(C)N(S(=O)(=O)c2ccc(C)cc2)c2ccc(C)cc21 | inactive: 1.58
30 | OCCNCC12CC3CC(CC(C3)C1)C2 | inactive: 1.42
12 | Nc1n/c(=N\Nc2ccccc2)ss1 | inactive: 1.17

(next part)

Row | SMILES | cell-surface Lgr5 expression
45 | CC(=O)CC12CC3CC(CC(C3)C1)C2 | inactive: 1.14
46 | CNc1nc(NCCOC23CC4CC(CC(C4)C2)C3)nc(OCC(F)(F)F)n1 | inactive: 0.983
47 | Cc1nc(Nc2ccc3c(c2)OCCO3)nc(Nc2ccc3c(c2)OCCO3)c1[N+](=O)[O-] | inactive: 0.835
48 | O=C(O)CCNc1n[nH]c(=O)[nH]c1=O | inactive: 1.26
49 | CCOC(=O)Cn1nnc(-c2nnn(CC(=O)OCC)n2)n1 | inactive: 1.18
50 | c1ccc(CN2CCN(Cc3ccccc3)C2c2ccc3ccccc3c2)cc1 | inactive: 1.22
51 | [O-][n+]1onc(-c2ccccc2)c1/N=N\c1c(-c2ccccc2)no[n+]1[O-] | inactive: 0.85
52 | O=[N+]([O-])c1ccc(C2COC(c3ccc(Cl)cc3)O2)cc1 (stereo unspecified) | inactive: 1.01
53 | Cc1nc2c(c(-n3nc(N)c(C#N)n3)nn2C)c(C)c1Cl | inactive: 1.39
54 | O=C1CC(=O)N(c2ccc(Br)cc2)N1 | inactive: 1.04
55 | Cn1c(=O)c2c(nc3n2C(c2ccccc2)C(c2ccc(-c4ccccc4)cc2)=NN3)n(C)c1=O (stereo unspecified) | inactive: 1.18
56 | CCCCCCCCCCn1c(SCC)nc2c1c(=O)[nH]c(=O)n2C | inactive: 1.48
57 | CCC(=O)c1c(N2CCCC2)cc(C)oc1=O | inactive: 1.03
58 | Cc1n[nH]c(=O)c2nc(-c3ccncc3)[nH]c12 | inactive: 1.08
59 | CCS(=O)(=O)c1nc(-c2ccc(C)cc2)cc(C(F)(F)F)n1 | inactive: 0.754
60 | Cc1cc(C)c(CSc2nc(N)cc(O)n2)c(C)c1 | inactive: 1.43
61 | O=C(O)C12CC3CC(C1)CC(n1cnc(Cl)n1)(C3)C2 | inactive: 1.09
62 | C=CCOc1c(Br)cc(Br)cc1/C=C1\NC(=S)NC1=O | inactive: 1.08
63 | O=C(N1CCCCC1)C12CC3CC(CC(C3)C1)C2 | inactive: 1.05
64 | Cc1cc2c(c(=O)o1)C(c1ccoc1)C(C#N)=C(N)O2 (stereo unspecified) | inactive: 1.21
65 | O=[N+]([O-])c1c(-c2cn[nH]c2)n[nH]c1-c1cn[nH]c1 | inactive: 1.12
66 | O=[N+]([O-])c1ccc(Nc2nnc(S)s2)cc1 | inactive: 1.33

Row | SMILES | cell-surface Lgr5 expression
67 | Cc1cc(C(F)(F)F)c(C#N)c(=O)[nH]1 | inactive: 1.27
68 | O=[N+]([O-])c1ccc2c(c1)oc1ccc(S(=O)(=O)NC3CCCCC3)cc12 | inactive: 1.69
69 | CCOc1nc(C#N)nc(N2CCCCC2)n1 | inactive: 0.783
70 | CC(=O)NCC1=C(NC(C)=O)C2CC1C(C)(C)C2C (stereo unspecified) | inactive: 0.999
71 | NC(=O)N1CCC(CCCC2CCN(C(N)=O)CC2)CC1 | inactive: 1.1
72 | Clc1ccc2nc(N/N=C/c3ccc4c(c3)OCO4)nc(-c3ccccc3)c2c1 | inactive: 1.14
73 | CCOC(=O)Nc1ccc(C)s1 | inactive: 1.23
74 | COC(=O)c1c(NC(=O)/C=C\C(=O)O)sc2c1CCC2 | inactive: 1.67
75 | O=S(=O)(c1ccc2ccccc2c1)N1CCc2ccccc21 | inactive: 1.23
76 | COC(=O)CSc1nnc(-c2cccs2)o1 | inactive: 1.18
77 | N#Cc1c(SCC(=O)Nc2nncs2)sc2c(O)nc(=O)[nH]c12 | inactive: 1.04
78 | Cc1ncc([N+](=O)[O-])n1CCN | inactive: 1.2
79 | Cn1cccc1/C=N\NC(=O)CCCC(=O)N/N=C/c1cccn1C | inactive: 1.05
80 | N#Cc1cc2ccccc2oc1=N | inactive: 1.84
81 | Cc1c(Br)c([N+](=O)[O-])nn1CC(=O)NC(C)C1CC2CCC1C2 (stereo unspecified) | inactive: 1.22
82 | COc1ccc2ccccc2c1/C=N\O | inactive: 0.751
83 | CCc1sc(C(C2C(=O)CC(C)(C)CC2=O)C2C(=O)CC(C)(C)CC2=O)cc1[N+](=O)[O-] | active: 2.75
84 | O=S(=O)(c1cccc2c(S(=O)(=O)N3CCOC(COc4ccccc4)C3)cccc12)N1CCOC(COc2ccccc2)C1 (stereo unspecified) | inactive: 1.08
85 | O=C1CSC(=O)N1CC(O)Cn1c2ccc(Br)cc2c2cc(Br)ccc21 (stereo unspecified) | inactive: 0.999
86 | Nc1n[nH]c(SCC(=O)Nc2nonc2-n2cccc2)n1 | inactive: 0.962
87 | CC1=NN(C(=N)N)C(=O)C1 | inactive: 1.13
88 | CCCc1nnc(N)s1 | inactive: 1.17

Row | SMILES | cell-surface Lgr5 expression
89 | CS(=O)(=O)c1nc(-c2ccc(Br)cc2)n[nH]1 | inactive: 1.37
90 | CCCCOC(=O)Nc1sc2c(c1C(=O)OC)CCC2 | inactive: 1.11
91 | Cn1c(COc2ccc3ccccc3c2)nc2ccccc21 | inactive: 1.17
92 | COC(=O)c1sc(C(=O)OC)c(Cl)c1Cl | inactive: 1.02
93 | Cc1nc(S(=O)(=O)n2ccnc2)c(C#N)c(C)c1Cl | inactive: 1.13
94 | Cn1cccc1/C=C(/C#N)C(N)=S | inactive: 0.863
95 | O=[N+]([O-])c1cnc(N2CCCCC2)nc1 | inactive: 1.16
96 | CCn1ncc(NS(=O)(=O)c2cnn(C)c2)c1C(=O)Nc1cnn(C)c1C | inactive: 1.06
97 | COc1ccc(OC)c(C2=Nn3c(nnc3-c3ccccc3OC)SC2)c1 | inactive: 0.909
98 | CCCC1CC2(O)CC(C#N)(C(=O)N2)C1(C#N)C#N (stereo unspecified) | inactive: 1.27
99 | c1ccc(-c2nc(-c3ccncc3)cc(-c3ccccn3)n2)cc1 | inactive: 1.13
100 | CC1=C(C#N)C(c2ccsc2)c2nc(N)oc2N1 (stereo unspecified) | inactive: 1.08
101 | NC(=O)Cn1cnc2sc3c(c2c1=O)CCC3 | inactive: 1.09
102 | Nc1cc(-c2cccs2)n[nH]1 | inactive: 1.36
103 | c1(c(sc2c1CCCC2)NC(C1C(C)(C)C1\C=C(\Cl)Cl)=O)C(OC(C)C)=O (stereo unspecified) | inactive: 1.19
104 | O=C1Oc2ccccc2C2Oc3c(c(=O)oc4ccccc34)C3(C(=O)Nc4ccccc43)C12 (stereo unspecified) | inactive: 1.15
105 | COC(=O)c1c(Br)cnn1C | inactive: 1.22
106 | O=C1/C(=C\c2ccsc2)N2CCC1CC2 | inactive: 0.851
